Data reported in PMC4454200.
Results are given in words; binding and its absence hold for the method and conditions named. A result given as binding can be weak or reduced; the word gives no strength.

Molecular target: GST-GTD fusion protein (C-terminal 410 residues of Myo5a), wild type (mouse)
Test: pull-down; GST pull-down: 0.5 uM GST-GTD and 1 uM Myo5a-HMM with GSH-Sepharose and the indicated concentrations of Mlph-GTBDP; WB-50 buffer (20 mM MOPS-KOH pH 7.0, 50 mM NaCl, 1 mM MgCl2, 1 mM DTT, 12 uM CaM, 1 mM EGTA), 4 C, 2 hr; SDS-PAGE, Coomassie staining; both purified

binding: binds
Binder: RDQPLNSKKKKRLLSFRDVDFEEDSDY (peptide, UniProt Q91V27 176-201) [Mlph-GTBDP, 26-residue Myo5a-GTD binding peptide of melanophilin with a C-terminal tyrosine]
